Source: PubChem BioAssay AID504467 (National Center for Advancing Translational Sciences (NCATS), 2011)
The whole screen tested about 330,000 compounds, of which about 7,700 (2.3%) were called active. The inconclusive results got no clear call from the source; some entries with a clear call stand among them for comparison. Calls come from the whole dose curve; as a rule, active = well fitted inhibition curve with a large enough effect; inconclusive = small, poorly fitted or top-dose-only effect, or effect the other way; inactive = flat fitted curve, though single readings scatter. Potencies of inconclusive entries are doubtful fits and often do not repeat.

Assay: qHTS screen for small molecules that inhibit ELG1-dependent DNA repair in human embryonic kidney (HEK293T) cells expressing luciferase-tagged ELG1; note: nearly all actives have a fitted effect of over 55% in size
Conditions: HEK293T ELG1-luciferase reporter, luminescence, 16 h, DNA damage induced by 5-fluorouridine; activity change, negative = inhibition: at 46.1 µM (top of the series)
Summary of the method: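 In this reporter screen, reduction of luminescence relative to DMSO vehicle indicated activity. Compounds and 5-fluorouridine were added together to 2,000 cells per well, incubated for 16 hr at 37 °C, then developed with ONE-Glo.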
% is set by controls: 0 for no effect and ±100 for the full control effect; potency is the fitted concentration of half-maximal effect.

SMILES	Potency	activity change, negative = inhibition
Cc1csc(NC(=O)CSc2nnc(-c3ccccc3)o2)n1	inconclusive: 7.31 µM [activator, partial curve]	–
N#Cc1ncc(Cc2ccccc2)nc1C#N	–	inactive: -5.5%
CC(C)CC1NC(=O)c2cc(Cl)ccc2-n2c1nc1cc(F)ccc1c2=O (stereo unspecified)	inconclusive: 32.6 µM [activator, partial curve, poor fit]	–
O=C(CSc1n[nH]c(-c2ccco2)n1)Nc1ccccc1Cl	–	inactive: -0.698%
CCOc1ccc(CCNC(=O)CN2C(=O)c3cccnc3Oc3ccc(Cl)cc32)cc1	inconclusive: 20.6 µM [inhibitor, single point]	–
O=C(Nc1nccs1)c1ccc2c(c1)OCO2	inconclusive: 20.6 µM [activator, partial curve]	–
CC(C)CC[n+]1ccn(C2=C([O-])c3ccccc3C(=O)/C2=N\S(=O)(=O)c2ccccc2)c1	inconclusive: 29.1 µM [inhibitor, single point]	–
Cc1cc(C)c2cc(C(=O)N3CCN(c4ncccc4C(F)(F)F)CC3)[nH]c2c1	inconclusive: 23.1 µM [inhibitor, partial curve]	–
Oc1ccc(/C=N/Nc2ccc(C(F)(F)F)cn2)c(O)c1	inconclusive: 29.1 µM [activator, single point]	–
COc1ccc(CNC(=O)Cn2nnc(-c3ccc(NC(=O)C4CCCCC4)cc3)n2)cc1	inconclusive: 6.51 µM [activator, partial curve]	–
CC(C)NC(=O)c1ccc2c(c1)N(Cc1ccccc1)C(=O)C(C)(C)O2	–	inactive: -12.3%
CCOC(=O)N1CCN(c2c(-c3ccccc3)c3cc(Cl)ccc3[nH]c2=O)CC1	–	inactive: 23.4%
CNC(=O)c1[nH]cnc1C(=O)Nc1cccc(OC)c1	inconclusive: 25.9 µM [activator, single point]	–
O=C(N/N=C/c1ccncc1)c1ccc(-n2cccc2)cc1	–	inactive: -0.362%
O=C(CCCOc1ccccc1)N1CCN(c2ccc(F)cc2)CC1	inconclusive: 20.6 µM [activator, partial curve]	–
O=[N+]([O-])c1nn(-c2ccc3c(c2)OCCO3)n(O)c1=NCc1ccccc1Cl	inconclusive: 2.91 µM [activator, partial curve]	–
CC(C)(C)S(=O)(=O)/C(C#N)=C/c1sccc1C1OCCO1	inconclusive: 6.51 µM [activator, single point]	–
c1ccc(-c2ccc(-c3nc(-c4ccccn4)no3)cc2)cc1	inconclusive: 0.058 µM [activator, full curve, poor fit]	–
Cc1cc(C(=O)N/N=C/c2ccc(N(C)C)o2)cs1	–	inactive: -2.23%
O=C(Nc1nnc(-c2ccccc2)o1)c1nc2ccccc2s1	–	inactive: 6.3%
Cc1ccc(C(=O)Nc2ncccc2C)cc1S(=O)(=O)N1CCOCC1	–	inactive: 17.9%
Cc1ccc(NC(=O)COC(=O)CN2C(=O)NC3(CCCC3)C2=O)cc1S(=O)(=O)N(C)C	inconclusive: 1.83 µM [activator, partial curve, poor fit]	–
O=C(Nc1cccc(Cl)c1N1CCCC1)c1ccc([N+](=O)[O-])o1	–	inactive: 18.1%

SMILES	Potency	activity change, negative = inhibition
CC(=O)CSc1nsc(SCC(C)=O)c1C#N	–	inactive: -3.32%
O=S(=O)(c1ccccc1)N1N=C(c2ccc(Br)cc2)CC1c1ccco1 (stereo unspecified)	inconclusive: 16.4 µM [inhibitor, partial curve]	–
Cc1cc(=O)[nH]c2c1c(C)nn2C1CCCC1	–	inactive: 21.6%
O=C(Nc1ccc(Cl)cc1)C(c1ccccc1)N(CCO)CCO (stereo unspecified)	inconclusive: 20.6 µM [activator, partial curve, poor fit]	–
CC(=O)Nc1ccc(NC(=O)c2ccc(N(C)S(=O)(=O)c3ccc(C)cc3)cc2)cc1	–	inactive: 12.3%
Brc1cc2c(cc1/C=N/Nc1nc(N3CCCC3)nc(N3CCOCC3)n1)OCO2	inconclusive: 11.6 µM [inhibitor, partial curve]	–
Cc1cccc(-c2nc(CN3CCCC(C(=O)NC4CCC(C)CC4)C3)c(C)o2)c1 (stereo unspecified)	inconclusive: 5.62 µM [inhibitor, partial curve]	–
CCCCN(CCCC)CCNC(=O)c1cn(C)c2ccc(S(=O)(=O)N3CCCC3)cc2c1=O	–	inactive: 13%
CN(c1ccc(C(=O)N2CCCCC2)cc1)S(=O)(=O)c1ccccc1	inconclusive: 6.51 µM [inhibitor, partial curve]	–
Cc1ccccc1-n1c(=O)[nH]c(=O)c2c(N)c(C(=O)c3ccc(Cl)cc3)sc21	inconclusive: 29.1 µM [inhibitor, single point]	–
CN(Cc1ccccc1)S(=O)(=O)c1nnc(NC(=O)c2ccc(F)cc2)s1	–	inactive: 8.14%
Cc1cc(NC(=O)CCCN2C(=O)/C(=C\c3cccs3)SC2=S)no1	–	inactive: 27.7%
c1ccc(SSc2ccccc2)cc1	–	inactive: -0.294%
c1coc(CN(Cc2ccco2)c2ncnc3c2oc2ccccc23)c1	inconclusive: 20.6 µM [inhibitor, single point]	–
Cc1ccsc1C(=O)N/N=C/c1ccc([N+](=O)[O-])cc1	inconclusive: 9.2 µM [activator, partial curve]	–
O=C(CNc1cccc(F)c1)N1CCc2ccccc2C1	inconclusive: 14.6 µM [activator, partial curve]	–
O=C(c1ccc(NC2=NC3CS(=O)(=O)CC3S2)cc1)N1CCN(c2ccc([N+](=O)[O-])cc2)CC1 (stereo unspecified)	inconclusive: 16.4 µM [activator, single point]	–
Cc1cc(C(=O)Nc2ccc(N3CCOCC3)c(Cl)c2)c(C)o1	inconclusive: 2.59 µM [activator, partial curve]	–
COc1ccccc1NC(=O)CS(=O)(=O)c1cn(CC(=O)N2CCCC2)c2ccccc12	–	inactive: -1.4%
Brc1ccccc1OCCOCCOc1cccc2cccnc12	inconclusive: 0.731 µM [activator, partial curve, poor fit]	–
CN(C(=O)C1CCCC1)C1CCS(=O)(=O)C1 (stereo unspecified)	–	inactive: 19.6%
Cc1ccc(CS/C(Nc2ccccc2C)=C(\C#N)C(N)=O)c(C)c1	inconclusive: 18.4 µM [inhibitor, single point]	–
Cc1ccc(S(=O)(=O)N2CCCCC2)cc1NC(=O)[C@@H]1CCCN1C(=O)c1cccs1	inconclusive: 17.8 µM [activator, single point]	–

Complete entries, quoted from the list. Values in the order: Potency | activity change, negative = inhibition
Cc1ccccc1-n1c(=O)[nH]c(=O)c2c(N)c(C(=O)c3ccc(Cl)cc3)sc21 as listed: inconclusive: 29.1 µM [inhibitor, single point] | –
CC(=O)Nc1ccc(NC(=O)c2ccc(N(C)S(=O)(=O)c3ccc(C)cc3)cc2)cc1 as listed: – | inactive: 12.3%
Cc1ccsc1C(=O)N/N=C/c1ccc([N+](=O)[O-])cc1 as listed: inconclusive: 9.2 µM [activator, partial curve] | –
Cc1ccc(S(=O)(=O)N2CCCCC2)cc1NC(=O)[C@@H]1CCCN1C(=O)c1cccs1 as listed: inconclusive: 17.8 µM [activator, single point] | –
